Laboratory results from the supplement of paper PMC7666118.
Some of the results follow.

By UniProt entry, the sequences of proteins in these tests, tags left out. Where a name states a change or a piece, a line headed by the entry shows the natural chain unless it says otherwise.
UniProt P14854, whole entry: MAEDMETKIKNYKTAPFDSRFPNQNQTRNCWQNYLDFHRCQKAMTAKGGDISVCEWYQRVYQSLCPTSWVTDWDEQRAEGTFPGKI
UniProt Q9UKF6: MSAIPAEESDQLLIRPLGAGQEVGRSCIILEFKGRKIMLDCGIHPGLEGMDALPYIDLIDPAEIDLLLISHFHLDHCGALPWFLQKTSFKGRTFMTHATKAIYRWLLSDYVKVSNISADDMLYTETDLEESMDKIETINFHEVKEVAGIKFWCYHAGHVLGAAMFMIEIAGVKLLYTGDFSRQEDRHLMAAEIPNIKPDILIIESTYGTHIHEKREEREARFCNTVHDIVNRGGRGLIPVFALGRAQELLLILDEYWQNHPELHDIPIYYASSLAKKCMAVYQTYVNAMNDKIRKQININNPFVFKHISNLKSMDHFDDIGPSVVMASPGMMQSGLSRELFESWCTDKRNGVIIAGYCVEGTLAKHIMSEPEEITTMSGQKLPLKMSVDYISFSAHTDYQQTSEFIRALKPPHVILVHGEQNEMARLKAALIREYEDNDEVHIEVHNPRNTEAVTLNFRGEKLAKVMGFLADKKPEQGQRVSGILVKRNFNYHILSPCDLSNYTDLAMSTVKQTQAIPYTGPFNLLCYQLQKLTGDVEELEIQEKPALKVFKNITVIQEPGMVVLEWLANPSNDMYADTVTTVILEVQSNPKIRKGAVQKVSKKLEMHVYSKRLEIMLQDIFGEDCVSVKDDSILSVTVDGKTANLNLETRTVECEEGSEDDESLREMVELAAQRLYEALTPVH
UniProt Q8N8Q8: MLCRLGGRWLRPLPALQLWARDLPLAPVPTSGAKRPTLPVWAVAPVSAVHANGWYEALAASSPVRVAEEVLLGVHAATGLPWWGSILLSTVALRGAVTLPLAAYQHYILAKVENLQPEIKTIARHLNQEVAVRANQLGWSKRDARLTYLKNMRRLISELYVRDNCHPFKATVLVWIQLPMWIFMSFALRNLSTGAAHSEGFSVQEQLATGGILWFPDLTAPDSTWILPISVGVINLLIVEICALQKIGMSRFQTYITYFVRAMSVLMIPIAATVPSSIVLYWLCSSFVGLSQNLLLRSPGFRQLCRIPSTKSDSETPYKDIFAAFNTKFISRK
UniProt O75503: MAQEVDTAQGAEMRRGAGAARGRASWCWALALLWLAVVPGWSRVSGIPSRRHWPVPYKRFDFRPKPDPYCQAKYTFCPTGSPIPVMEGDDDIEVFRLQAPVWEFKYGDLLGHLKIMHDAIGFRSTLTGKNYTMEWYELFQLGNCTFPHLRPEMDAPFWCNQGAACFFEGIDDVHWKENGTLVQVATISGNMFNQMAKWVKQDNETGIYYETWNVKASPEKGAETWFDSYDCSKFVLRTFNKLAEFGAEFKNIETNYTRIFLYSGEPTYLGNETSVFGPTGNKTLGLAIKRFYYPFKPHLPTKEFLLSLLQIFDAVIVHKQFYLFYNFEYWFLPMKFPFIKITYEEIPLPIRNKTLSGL
UniProt Q92793, whole entry, looked up: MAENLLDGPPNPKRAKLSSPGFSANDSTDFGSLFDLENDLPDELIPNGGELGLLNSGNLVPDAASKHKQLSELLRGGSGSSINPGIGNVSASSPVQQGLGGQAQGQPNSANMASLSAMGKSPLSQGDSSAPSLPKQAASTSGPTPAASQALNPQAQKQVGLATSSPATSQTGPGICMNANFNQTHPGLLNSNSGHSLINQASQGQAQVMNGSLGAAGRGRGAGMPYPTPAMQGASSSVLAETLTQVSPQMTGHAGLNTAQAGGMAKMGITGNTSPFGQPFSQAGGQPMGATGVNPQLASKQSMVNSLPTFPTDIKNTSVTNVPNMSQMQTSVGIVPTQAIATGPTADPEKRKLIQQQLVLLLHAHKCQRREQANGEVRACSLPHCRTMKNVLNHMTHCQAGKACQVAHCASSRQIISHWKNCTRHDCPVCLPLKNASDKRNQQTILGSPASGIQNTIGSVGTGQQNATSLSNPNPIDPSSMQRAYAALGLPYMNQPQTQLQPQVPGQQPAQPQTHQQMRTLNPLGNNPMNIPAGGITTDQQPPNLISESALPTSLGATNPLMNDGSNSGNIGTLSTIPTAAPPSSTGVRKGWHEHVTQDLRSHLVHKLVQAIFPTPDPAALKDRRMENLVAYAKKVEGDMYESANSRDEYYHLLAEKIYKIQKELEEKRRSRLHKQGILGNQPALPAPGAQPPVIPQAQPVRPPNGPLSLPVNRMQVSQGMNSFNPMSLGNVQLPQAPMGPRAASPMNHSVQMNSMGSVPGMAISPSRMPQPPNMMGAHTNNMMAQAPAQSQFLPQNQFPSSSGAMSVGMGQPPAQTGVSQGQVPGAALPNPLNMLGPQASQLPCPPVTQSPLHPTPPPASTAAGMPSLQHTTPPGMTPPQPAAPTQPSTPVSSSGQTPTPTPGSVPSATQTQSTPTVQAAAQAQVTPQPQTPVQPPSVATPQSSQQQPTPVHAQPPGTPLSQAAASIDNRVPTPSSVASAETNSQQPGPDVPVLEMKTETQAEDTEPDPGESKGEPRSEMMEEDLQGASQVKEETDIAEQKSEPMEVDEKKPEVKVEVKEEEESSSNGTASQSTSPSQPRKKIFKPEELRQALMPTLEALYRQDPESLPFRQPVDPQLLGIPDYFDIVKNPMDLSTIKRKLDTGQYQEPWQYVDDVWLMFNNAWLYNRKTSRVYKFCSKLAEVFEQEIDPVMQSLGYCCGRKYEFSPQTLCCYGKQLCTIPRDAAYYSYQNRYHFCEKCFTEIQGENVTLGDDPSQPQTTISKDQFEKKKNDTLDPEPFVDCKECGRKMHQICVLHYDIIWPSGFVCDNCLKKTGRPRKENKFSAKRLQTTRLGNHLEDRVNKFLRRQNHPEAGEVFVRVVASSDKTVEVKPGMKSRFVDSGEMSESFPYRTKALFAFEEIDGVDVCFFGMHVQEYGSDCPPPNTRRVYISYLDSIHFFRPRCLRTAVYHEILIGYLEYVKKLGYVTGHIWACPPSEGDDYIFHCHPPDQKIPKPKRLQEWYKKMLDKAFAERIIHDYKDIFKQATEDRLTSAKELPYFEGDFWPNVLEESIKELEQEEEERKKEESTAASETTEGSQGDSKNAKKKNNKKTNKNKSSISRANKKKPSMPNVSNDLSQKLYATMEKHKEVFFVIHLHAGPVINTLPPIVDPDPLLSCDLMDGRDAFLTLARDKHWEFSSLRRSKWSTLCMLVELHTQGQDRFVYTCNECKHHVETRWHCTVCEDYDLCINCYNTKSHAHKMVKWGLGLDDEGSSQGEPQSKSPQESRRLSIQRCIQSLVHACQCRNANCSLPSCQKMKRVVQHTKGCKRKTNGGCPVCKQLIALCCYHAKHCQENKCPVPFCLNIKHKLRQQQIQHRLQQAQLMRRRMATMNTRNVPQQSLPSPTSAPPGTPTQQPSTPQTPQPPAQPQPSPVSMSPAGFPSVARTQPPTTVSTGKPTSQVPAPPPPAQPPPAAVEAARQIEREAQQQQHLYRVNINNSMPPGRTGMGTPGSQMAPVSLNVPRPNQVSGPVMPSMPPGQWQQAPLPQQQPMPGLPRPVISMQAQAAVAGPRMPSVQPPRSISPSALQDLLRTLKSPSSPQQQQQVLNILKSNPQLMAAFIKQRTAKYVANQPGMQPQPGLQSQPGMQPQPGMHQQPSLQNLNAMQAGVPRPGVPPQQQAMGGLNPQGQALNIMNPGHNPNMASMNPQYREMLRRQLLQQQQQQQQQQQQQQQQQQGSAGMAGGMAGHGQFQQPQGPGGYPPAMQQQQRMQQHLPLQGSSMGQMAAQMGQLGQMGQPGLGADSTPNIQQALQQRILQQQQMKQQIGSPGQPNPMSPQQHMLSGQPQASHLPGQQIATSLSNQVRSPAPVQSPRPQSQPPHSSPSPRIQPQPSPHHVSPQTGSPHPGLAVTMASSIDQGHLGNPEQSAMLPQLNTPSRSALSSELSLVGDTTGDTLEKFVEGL
UniProt Q86X52: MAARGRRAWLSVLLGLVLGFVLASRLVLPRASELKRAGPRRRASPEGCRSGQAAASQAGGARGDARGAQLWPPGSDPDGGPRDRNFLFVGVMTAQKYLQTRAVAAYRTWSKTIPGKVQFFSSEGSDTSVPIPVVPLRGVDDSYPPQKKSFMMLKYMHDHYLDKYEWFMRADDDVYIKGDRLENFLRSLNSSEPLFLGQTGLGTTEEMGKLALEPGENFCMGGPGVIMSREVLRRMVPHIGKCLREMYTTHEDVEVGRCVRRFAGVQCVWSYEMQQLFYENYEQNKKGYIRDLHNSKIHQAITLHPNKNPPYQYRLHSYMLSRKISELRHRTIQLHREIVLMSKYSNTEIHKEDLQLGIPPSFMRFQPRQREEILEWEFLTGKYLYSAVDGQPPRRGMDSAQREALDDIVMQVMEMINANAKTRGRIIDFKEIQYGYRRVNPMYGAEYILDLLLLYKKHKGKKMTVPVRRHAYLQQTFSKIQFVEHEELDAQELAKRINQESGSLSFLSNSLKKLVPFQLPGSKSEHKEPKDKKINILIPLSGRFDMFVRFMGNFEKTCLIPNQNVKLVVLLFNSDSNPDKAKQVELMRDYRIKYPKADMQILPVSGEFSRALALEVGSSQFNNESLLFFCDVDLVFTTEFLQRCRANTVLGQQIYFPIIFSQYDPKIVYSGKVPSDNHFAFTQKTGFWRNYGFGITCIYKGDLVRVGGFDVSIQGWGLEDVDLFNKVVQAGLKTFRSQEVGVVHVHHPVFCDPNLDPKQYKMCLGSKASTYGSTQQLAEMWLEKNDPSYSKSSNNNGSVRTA
UniProt Q9BRQ6: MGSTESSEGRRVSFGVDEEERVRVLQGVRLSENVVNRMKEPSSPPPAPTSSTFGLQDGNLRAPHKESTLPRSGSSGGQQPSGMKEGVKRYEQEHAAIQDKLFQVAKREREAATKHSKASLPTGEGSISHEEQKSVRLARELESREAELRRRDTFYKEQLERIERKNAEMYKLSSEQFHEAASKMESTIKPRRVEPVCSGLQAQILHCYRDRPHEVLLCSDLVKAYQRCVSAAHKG
UniProt Q9UEE9, whole entry: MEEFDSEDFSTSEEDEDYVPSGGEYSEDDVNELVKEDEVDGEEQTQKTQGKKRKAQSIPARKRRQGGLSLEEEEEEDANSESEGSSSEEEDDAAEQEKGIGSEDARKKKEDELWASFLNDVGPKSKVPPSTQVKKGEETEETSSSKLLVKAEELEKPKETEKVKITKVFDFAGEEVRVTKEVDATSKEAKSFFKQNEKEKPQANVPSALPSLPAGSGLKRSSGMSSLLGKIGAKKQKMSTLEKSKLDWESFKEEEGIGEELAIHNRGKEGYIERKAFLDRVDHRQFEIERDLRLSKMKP
UniProt P09326: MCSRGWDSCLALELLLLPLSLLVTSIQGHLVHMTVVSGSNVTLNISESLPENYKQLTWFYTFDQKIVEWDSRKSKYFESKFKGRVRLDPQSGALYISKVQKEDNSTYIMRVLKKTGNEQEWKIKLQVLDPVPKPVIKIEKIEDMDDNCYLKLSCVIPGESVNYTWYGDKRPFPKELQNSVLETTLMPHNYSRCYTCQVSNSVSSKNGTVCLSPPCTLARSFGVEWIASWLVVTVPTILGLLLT
UniProt Q16740, whole entry: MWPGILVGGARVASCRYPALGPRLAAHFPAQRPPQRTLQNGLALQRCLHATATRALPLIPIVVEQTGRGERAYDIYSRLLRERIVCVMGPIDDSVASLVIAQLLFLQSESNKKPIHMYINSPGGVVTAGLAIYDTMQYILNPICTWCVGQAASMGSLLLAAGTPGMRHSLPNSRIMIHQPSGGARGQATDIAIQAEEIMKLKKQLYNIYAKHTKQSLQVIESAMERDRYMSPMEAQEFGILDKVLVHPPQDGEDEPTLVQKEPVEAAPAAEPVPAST
UniProt Q9Y5P4: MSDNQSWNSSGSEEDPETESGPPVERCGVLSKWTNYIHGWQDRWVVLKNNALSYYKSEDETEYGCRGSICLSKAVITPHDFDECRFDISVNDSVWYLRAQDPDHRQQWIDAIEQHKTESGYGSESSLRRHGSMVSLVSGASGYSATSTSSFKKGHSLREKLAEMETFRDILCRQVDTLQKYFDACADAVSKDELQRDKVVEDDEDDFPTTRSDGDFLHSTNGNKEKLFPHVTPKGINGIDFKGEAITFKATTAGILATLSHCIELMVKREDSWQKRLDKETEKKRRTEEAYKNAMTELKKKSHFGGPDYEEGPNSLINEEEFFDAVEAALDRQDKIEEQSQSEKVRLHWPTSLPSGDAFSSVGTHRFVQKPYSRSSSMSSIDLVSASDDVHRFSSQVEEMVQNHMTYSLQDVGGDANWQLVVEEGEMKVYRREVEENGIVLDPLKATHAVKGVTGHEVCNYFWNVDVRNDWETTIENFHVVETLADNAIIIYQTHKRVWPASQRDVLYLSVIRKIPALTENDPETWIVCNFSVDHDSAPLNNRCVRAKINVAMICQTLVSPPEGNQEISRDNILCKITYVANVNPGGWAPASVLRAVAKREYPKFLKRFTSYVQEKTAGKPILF
UniProt P60953, whole entry, looked up: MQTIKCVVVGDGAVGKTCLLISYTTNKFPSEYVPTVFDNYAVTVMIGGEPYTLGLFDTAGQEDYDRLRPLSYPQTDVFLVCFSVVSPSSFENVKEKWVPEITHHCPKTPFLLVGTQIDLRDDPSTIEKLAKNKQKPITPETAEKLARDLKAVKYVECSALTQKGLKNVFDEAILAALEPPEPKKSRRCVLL

Compound: COc1ccc(Cn2ccc3cc(C)c(C(=O)NO)cc32)cc1
Assay: dose-dependent thermal stabilisation call (2D-TPP, DLPTP, 10% FDR) (binary (1 = stabilised)); higher = stabilised by the compound
Conditions: system: HL-60 intact cells; concentration range 0.04-10 µM
Description: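 2D thermal proteome profiling in intact HL-60 cells treated with BRD-3811 (0, 0.04, 0.29, 2, 10 uM) for 90 min at 37 C, then heated 3 min at one of 12 temperatures (42-63.9 C). Soluble protein was quantified by TMT10 MS. The value is the DLPTP call of the paper: dose-dependent thermal stabilisation over all temperatures at 10% FDR (F-test of a dose-response against a flat model); one experiment, one call per tested protein.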

| Target | dose-dependent thermal stabilisation call |
| --- | --- |
| CLTA (UniProt P09496) | inactive: 0 |
| CLEC12A (UniProt Q5QGZ9) | inactive: 0 |
| CNP (UniProt P09543) | inactive: 0 |
| CEP76 (UniProt Q8TAP6) | inactive: 0 |
| COX6B1 (UniProt P14854) | inactive: 0 |
| CPNE1 (UniProt Q99829) | inactive: 0 |
| COQ6 (UniProt Q9Y2Z9) | inactive: 0 |
| COX5B (UniProt P10606) | inactive: 0 |
| CPSF3 (UniProt Q9UKF6) | inactive: 0 |
| COX18 (UniProt Q8N8Q8) | inactive: 0 |
| CLN5 (UniProt O75503) | inactive: 0 |
| CREBBP (UniProt Q92793) | inactive: 0 |
| COPZ1 (UniProt P61923) | inactive: 0 |
| CLASP1 (UniProt Q7Z460) | inactive: 0 |
| COG3 (UniProt Q96JB2) | inactive: 0 |
| CHSY1 (UniProt Q86X52) | inactive: 0 |
| CHEK1 (UniProt O14757) | inactive: 0 |
| CNDP2 (UniProt Q96KP4) | inactive: 0 |

Looked up one by one from above:

| Target | dose-dependent thermal stabilisation call |
| --- | --- |
| CHEK1 (UniProt O14757) | inactive: 0 |
| CLTA (UniProt P09496) | inactive: 0 |

Further entries follow.

| Target | dose-dependent thermal stabilisation call |
| --- | --- |
| CHCHD6 (UniProt Q9BRQ6) | inactive: 0 |
| CREB1 (UniProt P16220) | inactive: 0 |
| CFDP1 (UniProt Q9UEE9) | inactive: 0 |
| CHMP1B (UniProt Q7LBR1) | inactive: 0 |
| CIR (UniProt Q86X95) | inactive: 0 |
| CEP192 (UniProt Q8TEP8) | inactive: 0 |
| CD48 (UniProt P09326) | inactive: 0 |
| CLPP (UniProt Q16740) | inactive: 0 |
| CLNS1A (UniProt P54105) | inactive: 0 |
| CNPY2 (UniProt Q9Y2B0) | inactive: 0 |
| CENPP (UniProt Q6IPU0) | inactive: 0 |
| COPE (UniProt O14579) | inactive: 0 |
| COL4A3BP (UniProt Q9Y5P4) | inactive: 0 |
| COMMD1 (UniProt Q8N668) | inactive: 0 |
| CHCHD10 (UniProt Q8WYQ3) | inactive: 0 |
| CPSF2 (UniProt Q9P2I0) | inactive: 0 |
| CDC42 (UniProt P60953) | inactive: 0 |
| CRELD2 (UniProt Q6UXH1) | inactive: 0 |
